Data taken from patent US12029796B2, “Fluorescent probes for silver ION detection” (THE HONG KONG UNIVERSITY OF SCIENCE AND TECHNOLOGY, priority 2017, dated 2024).

Experiment: Fluorescence turn-on sensing and titration of silver ions
Conditions: for Emission: probe 5 μM in DI-water with Ag^+, excitation 345 nm; for maximum emission wavelength of silver-containing fluorescent solution: with silver ions
Source text: The turn-on fluorescence response was instant. The detection of silver ions was highly sensitive and sharp intensity changes could be detected with the naked eye. DLS (Dynamic light scattering) measurement confirmed the formation of nanoparticles. […] This is likely due to the reduction of silver-tetrazole complexes by the strong electron-beam during TEM studies. These emissive silver-compound solid complexes are hardly soluble in a range of solvents, including DMSO, methanol, and water. NMR analysis of these complexes is not possible. The complexes are also resistant to acid/base treatment, or heating by a heat-gun.
In fluorescence spectroscopy, solutions containing silver ions behaved quite differently from solutions without silver ions in terms of intensity, with the ratio of intensity at maximum peak at 504 nm exceeding 400 times (FIGS. 3A-3D). […] By plotting the intensity of maximum intensive peaks against the ratio of ion concentrations, it was expected that the working curve for the quantitative detection of silver ions could be established. […] Meanwhile, the detection limit (LOD) of silver ions is estimated to be 40 nM (S/N=3 and n=11). With a further increase of [Ag^+], the intensity reaches a plateau.
Tetrazole-tagged AIE luminogen TPE-4TTZ (5 μM) undergoes a fluorescence turn-on response towards a solution of silver ions. The solutions can include organic solutions, aqueous solutions including natural water, wastes and/or biological buffer solutions. PL spectra were recorded on a Perkin-Elmer LS 55 spectrofluorometer.
The solutions included organic solutions, aqueous solutions including natural water, wastes and/or biological buffer solutions. For the same probes, the calibration curve varied a little in different solutions. UV spectra were measured on a Biochrom Libra S80PC double beams spectrometer. PL spectra were recorded on a Perkin-Elmer LS 55 spectrofluorometer.

Structure (SMILES) | Emission [nm] | maximum emission wavelength of silver-containing fluorescent solution [nm]
c1ccc(C(=C(c2ccccc2)c2ccc(-c3nnn[nH]3)cc2)c2ccccc2)cc1 [TPE-1TTZ] | 490 | 490
c1ccc(C(=C(c2ccc(-c3nnn[nH]3)cc2)c2ccc(-c3nnn[nH]3)cc2)c2ccccc2)cc1 [TPE-2TTZ] | 489 | 489
c1cc(-c2nnn[nH]2)ccc1C(=C(c1ccc(-c2nnn[nH]2)cc1)c1ccc(-c2nnn[nH]2)cc1)c1ccc(-c2nnn[nH]2)cc1 [TPE-4TTZ] | 504 | 
